# No constants are given. Whether binding was seen depends on the method and setting. Binding seen in cells or lysates may run through a third protein. Some binding calls cover weakened binding; strength is not graded here. Where a sequence is shown, tags or fusion partners need not be part of it.
# T1: β-1, 4-galactosyltransferase 1 (B4galt1), endogenous (mouse (endogenous in MEFs)) (UniProt P15535)
# T1 sequence: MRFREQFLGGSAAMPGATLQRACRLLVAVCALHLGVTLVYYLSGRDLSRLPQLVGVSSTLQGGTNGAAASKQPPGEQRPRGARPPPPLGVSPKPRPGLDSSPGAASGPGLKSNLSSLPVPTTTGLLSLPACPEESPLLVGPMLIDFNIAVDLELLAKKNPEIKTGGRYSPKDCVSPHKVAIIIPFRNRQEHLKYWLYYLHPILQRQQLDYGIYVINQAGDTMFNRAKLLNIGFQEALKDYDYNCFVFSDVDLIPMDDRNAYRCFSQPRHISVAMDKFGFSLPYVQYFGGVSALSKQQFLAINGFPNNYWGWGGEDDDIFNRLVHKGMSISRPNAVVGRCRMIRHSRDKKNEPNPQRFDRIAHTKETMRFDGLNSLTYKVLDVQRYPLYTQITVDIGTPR
# Biological target: T1, β-1, 4-galactosyltransferase 1 (B4galt1), endogenous (mouse (endogenous in MEFs))
# Experiment: proximity ligation; Duolink In Situ PLA on fixed MEFs stably expressing St6gal1-GFP (Gphr-/-GPHR-3F and Gphr-/-Vec); goat anti-B4galt1 and mouse anti-GFP primary antibodies; signal when the epitopes are <40 nm apart; B4galt1 antibody alone as background; number and area of dots significantly decreased in Gphr-/-Vec MEFs
binder,measurement,value
"β-galactoside α-2,6-sialyltransferase 1-GFP (St6gal1-GFP) (enzyme, UniProt Q64685 1-403) MIHTNLKRKFSCFVLVFLLFAIICVWKKGSDYEALTLQAKVFQMPKSQEKVAVGPAPQAVFSNSKQDPKEGVQILSYPRVTAKVKPQPSLQVWDKDSTYSKLNPRLLKIWRNYLNMNKYKVSYKGPGPGVKFSVEALRCHLRDHVNVSMIEATDFPFNTTEWEGYLPKENFRTKAGPWHKCAVVSSAGSLKNSQLGREIDNHDAVLRFNGAPTDNFQQDVGTKTTIRLVNSQLVTTEKRFLKDSLYTEGILILWDPSVYHADIPQWYQKPDYNFFETYKSYRRLHPSQPFYILKPQMPWELWDIIQEISPDLIQPNPPSSGMLGIIIMMTLCDQVDIYEFLPSKRKTDVCYYHQKFFDSACTMGAYHPLLFEKNMVKHLNEGTDEDIYLFGKATLSGFRNNRC",binding,binds

# — article PMC11289521
